Experimental data: PubChem BioAssay AID1508597 (Cure First, 2020)

Aim: 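Genes whose silencing sensitises or protects ovarian cancer cells against rucaparib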 (primary screen)
Cell system: human ovarian carcinoma lines grown from tumours: OCI-P5x (papillary serous) and OCI-C5x (clear cell)
Reagent: siRNA pool against human genes, 1.25 pmol siRNA per well
Time to read-out: 72 h or 96 h, depending on the cell culture
Challenge: rucaparib 20 µM (about IC30) or vehicle, present until read-out
Read-out: 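ATP luminescence measured at 72 or 96 h according to the culture, then normalised and expressed as percent viability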
Direction: viability, normalised: higher = more viable cells remaining
Rule for the call: 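Active when normalised viability falls below 80 percent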
Calls: active = viability under 80%; inactive = viability 80% or more
This is a random part of about 2,100 reagents tested. 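Calls flag viability under 80% in either arm, not effects specific to rucaparib; the reference for percent is not stated.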 Entries without a mark were called inactive. A reagent listed more than once was tested more than once; the source does not tell the runs apart. The record does not give: the 100% reference.

gene,rucaparib or vehicle,cell line,technical replicate,"viability, normalised (%)"
BLK,Rucaparib,OCI-C5x (clear cell),1,76 (active)
BLK,Rucaparib,OCI-C5x (clear cell),2,70.9 (active)
BLK,Rucaparib,OCI-C5x (clear cell),3,49.4 (active)
BLK,Rucaparib,OCI-P5x (serous),1,74.4 (active)
BLK,Rucaparib,OCI-P5x (serous),2,61 (active)
BLK,Rucaparib,OCI-P5x (serous),3,71.7 (active)
BLK,Vehicle,OCI-C5x (clear cell),1,48.1 (active)
BLK,Vehicle,OCI-C5x (clear cell),2,68.2 (active)
BLK,Vehicle,OCI-C5x (clear cell),3,51 (active)
BLK,Vehicle,OCI-P5x (serous),1,64.6 (active)
BLK,Vehicle,OCI-P5x (serous),2,56.2 (active)
BLK,Vehicle,OCI-P5x (serous),3,61.2 (active)
DSTYK,Rucaparib,OCI-C5x (clear cell),1,48 (active)
DSTYK,Rucaparib,OCI-C5x (clear cell),2,42.3 (active)
DSTYK,Rucaparib,OCI-C5x (clear cell),3,38.4 (active)
DSTYK,Rucaparib,OCI-P5x (serous),1,57.2 (active)
DSTYK,Rucaparib,OCI-P5x (serous),2,67.1 (active)
DSTYK,Rucaparib,OCI-P5x (serous),3,60.5 (active)
DSTYK,Vehicle,OCI-C5x (clear cell),1,62 (active)
DSTYK,Vehicle,OCI-C5x (clear cell),2,57 (active)
DSTYK,Vehicle,OCI-C5x (clear cell),3,54.9 (active)
DSTYK,Vehicle,OCI-P5x (serous),1,61.4 (active)
DSTYK,Vehicle,OCI-P5x (serous),2,58.9 (active)
DSTYK,Vehicle,OCI-P5x (serous),3,67.8 (active)
POT1,Rucaparib,OCI-C5x (clear cell),1,71.4 (active)
POT1,Rucaparib,OCI-C5x (clear cell),2,63.6 (active)
POT1,Rucaparib,OCI-C5x (clear cell),3,64.8 (active)
POT1,Rucaparib,OCI-P5x (serous),1,53.3 (active)
POT1,Rucaparib,OCI-P5x (serous),2,63.9 (active)
POT1,Rucaparib,OCI-P5x (serous),3,58 (active)
POT1,Vehicle,OCI-C5x (clear cell),1,91.6
POT1,Vehicle,OCI-C5x (clear cell),2,51.3 (active)
POT1,Vehicle,OCI-C5x (clear cell),3,63.8 (active)
POT1,Vehicle,OCI-P5x (serous),1,62.1 (active)
POT1,Vehicle,OCI-P5x (serous),2,45.6 (active)
POT1,Vehicle,OCI-P5x (serous),3,48.3 (active)

The list goes on, starting with the last 3 of the part before.
gene,rucaparib or vehicle,cell line,technical replicate,"viability, normalised (%)"
POT1,Vehicle,OCI-P5x (serous),1,62.1 (active)
POT1,Vehicle,OCI-P5x (serous),2,45.6 (active)
POT1,Vehicle,OCI-P5x (serous),3,48.3 (active)
NTRK1,Rucaparib,OCI-C5x (clear cell),1,44.4 (active)
NTRK1,Rucaparib,OCI-C5x (clear cell),1,52.6 (active)
NTRK1,Rucaparib,OCI-C5x (clear cell),1,58.1 (active)
NTRK1,Rucaparib,OCI-C5x (clear cell),2,62.8 (active)
NTRK1,Rucaparib,OCI-C5x (clear cell),2,52.2 (active)
NTRK1,Rucaparib,OCI-C5x (clear cell),2,40.1 (active)
NTRK1,Rucaparib,OCI-C5x (clear cell),3,43.7 (active)
NTRK1,Rucaparib,OCI-C5x (clear cell),3,78.8 (active)
NTRK1,Rucaparib,OCI-C5x (clear cell),3,34.7 (active)
NTRK1,Rucaparib,OCI-P5x (serous),1,52.6 (active)
NTRK1,Rucaparib,OCI-P5x (serous),1,31.6 (active)
NTRK1,Rucaparib,OCI-P5x (serous),1,119
NTRK1,Rucaparib,OCI-P5x (serous),2,45.1 (active)
NTRK1,Rucaparib,OCI-P5x (serous),2,52.1 (active)
NTRK1,Rucaparib,OCI-P5x (serous),2,120
NTRK1,Rucaparib,OCI-P5x (serous),3,43.7 (active)
NTRK1,Rucaparib,OCI-P5x (serous),3,75.4 (active)
NTRK1,Rucaparib,OCI-P5x (serous),3,81.6
NTRK1,Vehicle,OCI-C5x (clear cell),1,35 (active)
NTRK1,Vehicle,OCI-C5x (clear cell),1,109
NTRK1,Vehicle,OCI-C5x (clear cell),1,59.4 (active)
NTRK1,Vehicle,OCI-C5x (clear cell),2,24.3 (active)
NTRK1,Vehicle,OCI-C5x (clear cell),2,45.6 (active)
NTRK1,Vehicle,OCI-C5x (clear cell),2,71.2 (active)
NTRK1,Vehicle,OCI-C5x (clear cell),3,63.2 (active)
NTRK1,Vehicle,OCI-C5x (clear cell),3,51.2 (active)
NTRK1,Vehicle,OCI-C5x (clear cell),3,33.9 (active)
NTRK1,Vehicle,OCI-P5x (serous),1,61.6 (active)
NTRK1,Vehicle,OCI-P5x (serous),1,96
NTRK1,Vehicle,OCI-P5x (serous),1,59.1 (active)
NTRK1,Vehicle,OCI-P5x (serous),2,49.1 (active)
NTRK1,Vehicle,OCI-P5x (serous),2,74.5 (active)
NTRK1,Vehicle,OCI-P5x (serous),2,81.5
NTRK1,Vehicle,OCI-P5x (serous),3,76.1 (active)
NTRK1,Vehicle,OCI-P5x (serous),3,93.5
NTRK1,Vehicle,OCI-P5x (serous),3,75.1 (active)
NCOA3,Rucaparib,OCI-C5x (clear cell),1,61.8 (active)
NCOA3,Rucaparib,OCI-C5x (clear cell),2,32.2 (active)
NCOA3,Rucaparib,OCI-C5x (clear cell),3,38.7 (active)
NCOA3,Rucaparib,OCI-P5x (serous),1,42.3 (active)
NCOA3,Rucaparib,OCI-P5x (serous),2,55.1 (active)
NCOA3,Rucaparib,OCI-P5x (serous),3,48.4 (active)
NCOA3,Vehicle,OCI-C5x (clear cell),1,48.3 (active)
NCOA3,Vehicle,OCI-C5x (clear cell),2,38.2 (active)
NCOA3,Vehicle,OCI-C5x (clear cell),3,42 (active)
NCOA3,Vehicle,OCI-P5x (serous),1,45.1 (active)
NCOA3,Vehicle,OCI-P5x (serous),2,53.2 (active)
NCOA3,Vehicle,OCI-P5x (serous),3,53.2 (active)
